## Primary screen of a compound library

Protein sequences, listed by entry. Tags and fused reporters are not part of them. Residues count along the entry.
UniProt Q4DA54, 1-478: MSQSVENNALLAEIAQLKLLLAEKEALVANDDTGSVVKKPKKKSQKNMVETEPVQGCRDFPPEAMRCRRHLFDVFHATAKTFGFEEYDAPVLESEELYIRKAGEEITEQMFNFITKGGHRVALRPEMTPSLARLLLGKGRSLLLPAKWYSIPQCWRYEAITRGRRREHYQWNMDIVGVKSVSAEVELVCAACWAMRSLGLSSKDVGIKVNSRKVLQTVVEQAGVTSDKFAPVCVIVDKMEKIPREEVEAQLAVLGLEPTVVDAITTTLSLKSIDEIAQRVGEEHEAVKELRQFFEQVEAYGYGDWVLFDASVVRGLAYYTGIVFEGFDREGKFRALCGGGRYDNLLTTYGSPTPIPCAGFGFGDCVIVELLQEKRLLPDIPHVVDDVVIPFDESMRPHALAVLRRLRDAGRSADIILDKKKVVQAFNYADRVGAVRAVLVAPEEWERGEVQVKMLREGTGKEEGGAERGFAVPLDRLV
UniProt A4I591, 1-473: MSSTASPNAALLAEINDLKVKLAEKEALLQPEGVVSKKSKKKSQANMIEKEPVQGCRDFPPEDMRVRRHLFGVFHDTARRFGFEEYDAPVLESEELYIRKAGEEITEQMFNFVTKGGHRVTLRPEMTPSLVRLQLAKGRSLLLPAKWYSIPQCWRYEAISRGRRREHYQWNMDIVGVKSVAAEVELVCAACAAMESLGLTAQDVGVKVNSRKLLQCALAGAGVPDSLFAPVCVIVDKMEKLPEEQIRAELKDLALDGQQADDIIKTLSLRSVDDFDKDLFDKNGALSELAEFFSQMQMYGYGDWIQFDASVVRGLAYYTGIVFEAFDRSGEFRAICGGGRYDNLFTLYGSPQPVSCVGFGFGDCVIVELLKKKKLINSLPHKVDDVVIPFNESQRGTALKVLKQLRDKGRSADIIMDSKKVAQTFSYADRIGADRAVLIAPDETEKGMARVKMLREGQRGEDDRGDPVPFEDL
UniProt P9WPC5, whole entry: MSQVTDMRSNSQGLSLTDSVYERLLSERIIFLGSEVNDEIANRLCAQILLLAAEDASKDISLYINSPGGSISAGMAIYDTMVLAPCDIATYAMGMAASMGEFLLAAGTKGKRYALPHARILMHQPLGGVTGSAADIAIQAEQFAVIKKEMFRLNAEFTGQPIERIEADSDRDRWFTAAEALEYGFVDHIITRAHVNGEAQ
UniProt P9WPC3, whole entry partner: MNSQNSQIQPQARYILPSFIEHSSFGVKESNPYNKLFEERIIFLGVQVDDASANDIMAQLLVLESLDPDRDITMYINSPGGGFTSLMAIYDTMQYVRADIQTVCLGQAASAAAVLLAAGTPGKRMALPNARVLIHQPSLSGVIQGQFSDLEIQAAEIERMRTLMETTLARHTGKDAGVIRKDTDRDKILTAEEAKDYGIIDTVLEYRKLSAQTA

Each number is a percent effect as filed.
The controls that fix the scale are not given in the record; negative values are as filed.
Compounds were drawn at random from those tested, without regard to their results.
Two or more numbers in one place are separate tests of the same structure; such repeats can differ widely.
A dash means the value is not listed here; it may have been measured.

A: 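Assay of Toxoplasma gondii numbers, read through their beta-galactosidase reporter with a colour substrate. Compounds at 10 µM. The record gives no direction; the compounds picked for IC50 retests had high values, so higher reads as fewer parasites. Of about 67,000 compounds tested this way, about 260 (0.38%) reached 50% or more in at least one test.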
B: 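Cell assay of Leishmania donovani living inside macrophages; the read-out is not stated. Compounds at 30 µM. The record gives no direction; compounds that gave an IC50 in retests scored well above the rest, so higher reads as stronger inhibition. About 69,000 compounds were tested under these conditions; 1.5% (about 1,000) showed 50% or more at least once.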
C: 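Enzyme assay of histidyl-tRNA synthetase; the read-out is not stated. Target: Histidine-tRNA ligase, Trypanosoma cruzi CL Brener (UniProt Q4DA54). Concentration: 30 µM. Direction is inferred from retests: higher values go with stronger inhibition. About 69,000 compounds were tested under these conditions; 0.045% (about 31) showed 50% or more at least once.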
D: 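Enzyme assay of histidyl-tRNA synthetase; the read-out is not stated. Target: Histidine-tRNA ligase, Leishmania infantum (UniProt A4I591). Compounds at 30 µM. The record gives no direction; compounds that gave an IC50 in retests scored well above the rest, so higher reads as stronger inhibition. The assay is labelled LdHisRS but filed under L. infantum. Of about 69,000 compounds tested this way, about 410 (0.6%) reached 50% or more in at least one test.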
E: 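ClpP1P2, Mycobacterium tuberculosis (UniProt P9WPC5 and UniProt P9WPC3). Protease assay of ClpP1P2, read by the AMC dye that it sets free. Tested at 50 µM. Direction is inferred from only a few compounds that gave an IC50; most scored high, so higher reads as stronger inhibition. Most other retested compounds had strongly negative values. Size under these conditions: about 69,000 compounds, about 10 of them at 50% or above in at least one test.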
F: 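Whole-parasite assay of Trypanosoma brucei over 72 hours; the read-out is not stated. Concentration: 30 µM. The record gives no direction; compounds that gave an IC50 in retests scored well above the rest, so higher reads as stronger inhibition. Values scatter widely below zero; nearly all retest evidence comes from the higher of the two concentrations used. Size under these conditions: about 64,000 compounds, about 940 of them at 50% or above in at least one test.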

structure	A	B	C	D	E	F
Cn1cc2c(n1)C(CNCC1CCOCC1)OCC2 (stereo not given)	-	-	6.897%	-32%	6.584%	-
COCC(=O)N1CCC(c2nccnc2Oc2cccnc2C)CC1	-1.975%	18.03%	0%	11.43%	11.94%	-14.55%
O=C(O)C(F)(F)F.[H][C@@]12OCCN(c3ncc(F)cn3)[C@@]1([H])CC[C@H]2OCC(=O)N(C)C	-3.265%	36.01%	-	-	-	-79.95%
Cc1noc(C(C)N2CCN(CCOCC(F)(F)F)CC2)n1 (stereo not given)	-34.84%	-9.766%	0.8746%	11.01%	-9.374%	-
[H][C@]12CC[C@]([H])(CN(C3CSCCSC3)C1)N(Cc1cscn1)C2=O	4.497%	-11.37%	-	-	-	-71.48%
Cc1nc(CN2CC[C@H]3C[C@H](c4ccncn4)O[C@@H]3C2)cs1	-	-	3.279%	8.772%	-6.61%	-
CC(C)C(=O)N1CCC(Cc2nccnc2Nc2ccccn2)CC1	-3.588%	4.73% and -22.06%	8.889%	8.247%	11.29%	-4.509%
Cn1ncnc1CNC1CCCc2cc(F)ccc21 (stereo not given)	5.32%	-0.1409%	1.961%	4.8%	-23.19%	0.9239%
Cc1ccccc1N1CCN(C(=O)c2cnc(N(C)C)nc2C)C(C)C1 (stereo not given)	-4.873%	-13.16%	1.02%	27.78%	-1.584%	-13.12%
Cc1cccc(-c2ccc(C(=O)NCC3CCOC3)c(=O)[nH]2)c1 (stereo not given)	3.274%	18.34%	5.263%	19.05%	-1.55%	-1.656%
CN(C)C(=O)CN1CCC(c2c(C(N)=O)sc3ncccc23)C1 (stereo not given)	20.35%	-40.37%	3.39%	8.392%	-11.64%	-20.96%
[H][C@@]12CCN(C(=O)C3CC3)[C@]1([H])C(=O)N(c1ccc(C)cc1)C(=O)N2	16.6%	22.71%	-	-	-	-5.885%
Cc1ccc(C(C(=O)O)N(C)CCN2CCOCC2)c(F)c1 (stereo not given)	-0.9566%	11.7%	3.409%	8.333%	4.739%	-14.92%
CCOc1ccc(CN(CCOC)c2nc(C)nc3oc(C)nc23)cc1	-4.309%	46.8%	8.427%	5.128%	-6.75%	-9.606%
Cc1ccc(C(=O)N2CCC3(CCCC3)CC2)c(=O)[nH]1	0.5668%	27.16%	-1.84%	19.75%	-7.601%	-24%
CCCc1cc(=O)[nH]c(SCc2ccccn2)n1	-7.168%	27.01%	15%	21.74%	1.27%	-17.59%
COCCNC(=O)Cn1c(-c2ccco2)cc2cccnc21	-1.627%	19.95%	6.571%	14.77%	-35.26%	4.916%
O=C(O)C(F)(F)F.[H][C@@]12CCCO[C@]1([H])[C@H](Oc1ccccn1)CN2S(=O)(=O)CCC	1.919%	11.32% and -6.332%	-	-	-	-40.73%
CC(C)n1cc2cc(NC(=O)CCS(C)(=O)=O)ccc2n1	-6.972%	9.108%	8.387%	39.39%	2.104%	3.454%
CCOc1ccc(NC(=O)Nc2cnc(N3CCOCC3)nc2)cc1	8.666%	14.34%	-4.39%	6.78%	-17.89%	2.366%
COc1ccc(COCC(=O)N2CCN(CC(C)(C)O)CC2)cc1	1.184%	16.54%	5.325%	16.07%	-13.17%	0.9933%
Cc1cc(C)n(C2CN(CC(=O)NC(C3CC3)C3CC3)C2)n1	15.66%	20.01%	5.07%	11.3%	-12.27%	14.65%
CC(=O)N(C)CC(=O)NC(CC(C)C)c1cccs1 (stereo not given)	0.6866%	17.12%	2.674%	4.712%	-1.269%	-8.485%
O=C(C1CCN(Cc2nc(-c3ccco3)no2)CC1)N1CCCC1	28.76%	6.252%	-2.312%	15.18%	-23.89%	2.251%
COCCN1CCN(CC(O)c2ccc(C(F)(F)F)cc2)CC1 (stereo not given)	7.234%	39.79%	3.879%	26.58%	-10.82%	11.63%
COc1ncccc1CN1CCC2(CCCN2S(C)(=O)=O)CC1.O=C(O)C(F)(F)F.O=C(O)C(F)(F)F	-6.958%	26.05%	-	-	-	-62.27%
COc1cccc(-n2cc(CN(C)Cc3ccnc(C(C)C)n3)cn2)c1	-7.216%	11.44%	18.09%	27.06%	5.386%	1.062%
Cc1nnc(NCCc2coc(-c3ccccc3)n2)c(C#N)c1C	-8.98%	5.304%	-1.02%	51.43%	-0.798%	8.746%
CC(C)c1nc(CN2CCOC(CNc3cccnn3)C2)cs1 (stereo not given)	-10.03%	19.34%	14.61%	42.11%	-8.055%	100.6%
O=C(O)C(F)(F)F.O=C(O)C(F)(F)F.[H][C@]12CCN(c3ncc(C)cn3)[C@@]1([H])CC[C@H](COCc1ccccn1)O2	-2.783%	7.793%	-	-	-	-17.53%
CC(C)(C)n1ncc2c1CCCC2NCc1ccc2c(c1)OCCO2 (stereo not given)	8.77%	15.87%	1.754%	16.07%	3.841%	-32.83%
COCC(O)CNC(=O)c1cnc(-c2ccccc2)nc1O (stereo not given)	-4.732%	35.82%	2.5%	25%	-2.302%	6.859%
Cc1ccc(-c2nnn(CCN3C(=O)CCC3=O)n2)cc1	0.918%	-10.3%	3.867%	10.36%	9.372%	-25.63%
[H][C@]12CCC[C@@]1(COCC1CCOCC1)CN(C(=O)c1ocnc1C)C2	-2.743%	24.66%	-	-	-	-
CC(C)c1nccn1C1CCCN(C(=O)CCNS(C)(=O)=O)C1 (stereo not given)	-9.068%	12.83%	4.624%	18.42%	-7.158%	15.57%
Cn1ccc(-c2cc(C(=O)N3CCOCC3)c3ccccn23)n1	1.022%	14.2%	1.657%	3.008%	-39.62%	-
O=C(O)[C@@H]1CN(Cc2ccc(-c3cc[nH]n3)s2)C[C@H]1C1CC1	-3.924%	13.99%	8.374%	14.47%	-11.13%	-7.059%
Cc1cc(NCCN)nc2ccccc12.O=[N+]([O-])O	8.697%	54.09%	-	-	-	-46.24%
Cn1cnnc1C1CCCN(C(=O)NCCCn2cccn2)C1 (stereo not given)	-1.64%	24.48%	4%	3.846%	-27.81%	-
CCN(c1ccc(C(=O)N2CCC(C(N)=O)CC2)cc1)S(=O)(=O)CC	-15.3%	-30.92%	-2.513%	-20.22%	0.07823%	-27.71%
C=C(C)CN(CC)C(=O)Nc1ccccc1CN(C)C(C)=O	-23.17%	40.09%	12.73%	15.56%	-2.132%	-44.12%
Fc1cnc(N2C[C@@H]3COC[C@]3(COc3ccccn3)C2)nc1	-	-	6.667%	12.5%	-11.67%	-

The last 3 entries again:

| structure | A | B | C | D | E | F |
|---|---|---|---|---|---|---|
| `CCN(c1ccc(C(=O)N2CCC(C(N)=O)CC2)cc1)S(=O)(=O)CC` | -15.3% | -30.92% | -2.513% | -20.22% | 0.07823% | -27.71% |
| `C=C(C)CN(CC)C(=O)Nc1ccccc1CN(C)C(C)=O` | -23.17% | 40.09% | 12.73% | 15.56% | -2.132% | -44.12% |
| `Fc1cnc(N2C[C@@H]3COC[C@]3(COc3ccccn3)C2)nc1` | - | - | 6.667% | 12.5% | -11.67% | - |

Measurements from “University of Dundee, Small-Polar-MMV Screening Library” (2021), ChEMBL document CHEMBL3988442.